Results reported in PMC12548456.
Results are given in words; binding and its absence hold for the method and conditions named. Binding seen in cells or lysates may run through a third protein. Some results given as binding are weak or reduced against the parent protein; the word gives no strength.

By UniProt entry, the sequences of proteins in these tests, tags left out.
UniProt Q9QJ19: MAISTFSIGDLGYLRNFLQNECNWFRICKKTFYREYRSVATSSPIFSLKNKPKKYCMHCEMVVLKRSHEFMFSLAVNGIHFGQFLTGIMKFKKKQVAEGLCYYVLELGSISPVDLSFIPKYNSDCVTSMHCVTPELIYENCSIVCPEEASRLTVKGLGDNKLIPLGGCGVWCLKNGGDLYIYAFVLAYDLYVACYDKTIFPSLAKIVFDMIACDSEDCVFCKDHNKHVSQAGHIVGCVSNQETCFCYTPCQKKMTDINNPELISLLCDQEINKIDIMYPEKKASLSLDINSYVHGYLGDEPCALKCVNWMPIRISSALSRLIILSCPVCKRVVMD

Biological target: FLAG-H2ACG (Histone H2A, hCG_2039566) (human)
Assay: co-IP; 293T cells co-transfected with HA-U65 and FLAG-H2ACG or FLAG-H2AC7; lysates immunoprecipitated with an anti-FLAG antibody (legend; the methods name anti-HA-tag magnetic agarose), blotted with anti-HA or anti-FLAG

HA-U65 (HHV-6B tegument protein U65, HA-tagged) (from UniProt Q9QJ19 1-335)
binding: binds
